Assay results reported in patent US9161993B2 (Danmarks Tekniske Universitet, priority 2011, dated 2015).

Assay: general procedure: Fmoc solid-phase peptide synthesis; TentaGel-PAP resin (Rapp Polymere, Germany)
Details: whole synthesis, analytical HPLC

For “(C14)2-dap-Trp-Ile-Pro-Val-Ser-Leu-Arg-Ser-Gly-Glu-Glu-Glu-Glu-PEG2000-OH”, which “final HPLC purity” value is on record?
The value was >98%.
